One may read the Papp A→B as how fast a substance crosses the layer from the apical side.

This is an account of results in paper PMC6331934, “Study of the Biotransformation of Tongmai Formula by Human Intestinal Flora and Its Intestinal Permeability across the Caco-2 Cell Monolayer” (Molecules, 2015).

The series in a line: Bidirectional transport across the Caco-2 cell monolayer (Papp, efflux ratio, mass balance). As to conditions: human, Caco-2, pH 7.4. On the technique in general: Passage across Caco-2 layers is used to estimate intestinal permeability.

Take `CC(C)NCC(O)COc1ccc(CC(N)=O)cc1` (stereo not shown) [atenolol, reference compound]: the Papp A→B at 1 h came out at 0.617 ×10⁻⁶ cm/s.
